Results on five molecules are retold here after the supplement of paper PMC10032668.

By UniProt entry, the sequences of proteins in these tests, tags left out.
KPNA1, P52294, UniProt P52294, whole entry: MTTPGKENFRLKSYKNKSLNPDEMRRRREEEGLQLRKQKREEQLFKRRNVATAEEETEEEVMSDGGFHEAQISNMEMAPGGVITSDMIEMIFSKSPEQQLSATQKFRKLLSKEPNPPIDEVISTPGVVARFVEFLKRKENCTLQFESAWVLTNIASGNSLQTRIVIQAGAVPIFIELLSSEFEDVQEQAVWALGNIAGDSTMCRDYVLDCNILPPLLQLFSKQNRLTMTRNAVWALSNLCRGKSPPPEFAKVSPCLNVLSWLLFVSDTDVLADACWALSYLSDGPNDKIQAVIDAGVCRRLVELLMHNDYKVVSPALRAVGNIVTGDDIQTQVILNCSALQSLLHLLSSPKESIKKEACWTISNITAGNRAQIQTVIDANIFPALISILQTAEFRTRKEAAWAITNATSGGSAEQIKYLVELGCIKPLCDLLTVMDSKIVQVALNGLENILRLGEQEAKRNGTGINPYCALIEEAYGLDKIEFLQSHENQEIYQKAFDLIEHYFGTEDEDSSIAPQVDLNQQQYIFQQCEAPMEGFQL
SRSF9, Q13242, UniProt Q13242, whole entry: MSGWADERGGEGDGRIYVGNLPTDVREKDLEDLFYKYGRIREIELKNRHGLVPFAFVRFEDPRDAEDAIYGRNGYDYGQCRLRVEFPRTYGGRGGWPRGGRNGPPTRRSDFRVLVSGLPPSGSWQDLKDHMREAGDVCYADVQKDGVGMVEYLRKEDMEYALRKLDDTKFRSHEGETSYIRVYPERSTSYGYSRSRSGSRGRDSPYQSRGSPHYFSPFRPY

The other results are listed elsewhere or left out. The list holds hits alone, and they repeat only in part.

What all share (test): PRISMA enrichment of interactor (LFQ) in peptide spot vs all other peptide spots (log2 fold change); higher = stronger / more specific binding of the interactor to the peptide
The target in assay [1] is ACTBL2, Q562R1. As to the method: (§1)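 PRISMA: 221 full-length sORF-encoded peptides (3-15 aa), plus SOS1/GLUT1 control peptides, were spot-synthesized on cellulose membranes in triplicate. Membranes were incubated with HEK293T lysate, and bound proteins were identified by LC-MS/MS with LFQ. Enrichment is the log2 fold change versus all other peptide spots; only significant interactors are listed (cutoff c=6, x0=2.8).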

For assay [2], the target named is COIL, P38432. The protocol: as §1
Assay [3] has as its target DCTN1, Q14203. The protocol: as §1
The target of assay [4] is DDX41, Q9UJV9. As to the method: as §1
Assay [5] has as its target EMILIN1, Q9Y6C2. As to the method: as §1
In assay [6] the target is MPHOSPH10, O00566. The protocol:
as §1

In assay [7] the target is SOX8, P57073. As to the method:
as §1

For assay [8], the target named is ARHGAP1, Q07960. The protocol: as §1
The target in assay [9] is BRAT1, Q6PJG6. As to the method: as §1
For assay [10], the target named is CD2AP, Q9Y5K6. The protocol:
as §1

For assay [11], the target named is NDUFB5, O43674. The protocol: as §1
Assay [12] deals with NUBP2, Q9Y5Y2. The protocol: as §1
For assay [13], the target named is REPIN1, Q9BWE0. The protocol:
as §1

Assay [14] deals with RPP38, P78345. As to the method:
as §1

Assay [15] concerns the target TGM2, P21980. The protocol: as §1
The target of assay [16] is TRMU, O75648. The protocol:
as §1

The target in assay [17] is ACO2, Q99798. As to the method: as §1
The target in assay [18] is CPSF2, Q9P2I0. The protocol: as §1
The target in assay [19] is HELLS, Q9NRZ9. As to the method: as §1
Assay [20] addresses IARS2, Q9NSE4. The protocol:
as §1

Assay [21] has as its target KPNA1, P52294. As to the method: as §1
For assay [22], the target named is LSM4, Q9Y4Z0. The protocol:
as §1

The target of assay [23] is RUVBL1, Q9Y265. As to the method: as §1
The target of assay [24] is RUVBL2, Q9Y230. The protocol: as §1
Assay [25] has as its target TOMM34, Q15785. As to the method:
as §1

Assay [26] concerns the target ACIN1, Q9UKV3. As to the method: as §1
In assay [27] the target is ANP32A, P39687. As to the method: as §1
In assay [28] the target is ANP32B, Q92688. The protocol: as §1
The target in assay [29] is ANP32E, Q9BTT0. As to the method: as §1
Assay [30] concerns the target CALU, O43852. The protocol: as §1
Assay [31] addresses CCDC47, Q96A33. As to the method:
as §1

The target of assay [32] is CTTN, Q14247. As to the method: as §1
Assay [33] concerns the target DDX21, Q9NR30. As to the method: as §1
Assay [34] concerns the target EIF6, P56537. The protocol:
as §1

The target in assay [35] is GRSF1, Q12849. The protocol: as §1
For assay [36], the target named is HTATSF1, O43719. As to the method: as §1
Assay [37] has as its target LARP1, Q6PKG0. As to the method:
as §1

In assay [38] the target is LTV1, Q96GA3. The protocol: as §1
Assay [39] addresses MOV10, Q9HCE1. The protocol:
as §1

The target of assay [40] is MRPL1, Q9BYD6. As to the method: as §1
Assay [41] concerns the target MRPL9, Q9BYD2. As to the method: as §1
The target in assay [42] is MRPS2, Q9Y399. As to the method:
as §1

Assay [43] deals with MRPS27, Q92552. As to the method:
as §1

Assay [44] deals with MRPS31, Q92665. As to the method: as §1
The target of assay [45] is MRPS34, P82930. The protocol: as §1
Assay [46] addresses MRPS35, P82673. As to the method:
as §1

Assay [47] addresses MRPS9, P82933. As to the method:
as §1

In assay [48] the target is NAT10, Q9H0A0. As to the method: as §1
Assay [49] deals with NDUFAB1, O14561. As to the method:
as §1

For assay [50], the target named is NOB1, Q9ULX3. The protocol: as §1
Assay [51] concerns the target NUP107, P57740. The protocol:
as §1

For assay [52], the target named is PELP1, Q8IZL8. The protocol: as §1
Assay [53] deals with POLR2B, P30876. As to the method:
as §1

Assay [54] concerns the target PTCD3, Q96EY7. The protocol:
as §1

The target in assay [55] is RBM10. The protocol: as §1
The target of assay [56] is RCN2, Q14257. As to the method:
as §1

Assay [57] concerns the target RIOK1, Q9BRS2. As to the method: as §1
Assay [58] addresses RPS29, P62273. The protocol: as §1
The target of assay [59] is SART3, Q15020. The protocol: as §1
The target of assay [60] is SH3GL1, Q99961. As to the method: as §1
Assay [61] has as its target SNX9, Q9Y5X1. As to the method: as §1
Assay [62] has as its target SRSF1, Q07955. The protocol:
as §1

Assay [63] addresses SRSF9, Q13242. The protocol:
as §1

In assay [64] the target is SUPT5H, O00267. The protocol:
as §1

Assay [65] has as its target TSR1, Q2NL82. As to the method:
as §1

Assay [66] addresses MRPS7, Q9Y2R9. As to the method:
as §1

The target of assay [67] is MRTO4, Q9UKD2. As to the method: as §1
Assay [68] concerns the target NOP2, P46087. The protocol: as §1
In assay [69] the target is PAF1, Q8N7H5. As to the method:
as §1

Assay [70] deals with RO60, P10155. As to the method:
as §1

Assay [71] deals with RPLP1, P05386. As to the method: as §1
For assay [72], the target named is RSL1D1, O76021. As to the method: as §1
The target of assay [73] is SET, Q01105. The protocol: as §1
Assay [74] concerns the target STAU1, O95793. The protocol:
as §1

The target in assay [75] is SUPT6H, Q7KZ85. As to the method:
as §1

Assay [76] addresses TOP1, P11387. The protocol:
as §1

The target in assay [77] is UPF1, Q92900. The protocol: as §1
Assay [78] concerns the target ZRANB2, O95218. The protocol: as §1

In the case of MLSEARRDPGES [RHOB], the “PRISMA enrichment of interactor (log2)” value in assay [1] worked out at 6.43; in assay [2] it was 5.49; in assay [3] it was 7.23; in assay [4] it was 6.86; in assay [5] it was 5.65; in [6], 5.26. In assay [7], the “PRISMA enrichment of interactor (log2)” value is 7.43.
Take MAPVRERPWPRQ [TNPO3]: the “PRISMA enrichment of interactor (log2)” value was 7.41 in assay [1]; 4.28 in [8]; 7.02 in [9]; 7.38 in assay [10]; 6.25 in [11]; 8.91 in [12]. Besides, the “PRISMA enrichment of interactor (log2)” value came to 4.71 in assay [13], 4.83 in assay [14], 6.97 in assay [15] and 3.8 in assay [16].
For MITVLPKKAYLM [MTIF3], the “PRISMA enrichment of interactor (log2)” value was 6.47 in [17]; 4.75 in assay [18]; 5.04 in assay [19]; 10 in [20]; 7.07 in assay [21]; 8.82 in [22]. Also, the “PRISMA enrichment of interactor (log2)” value in assay [23] turned out to be 5.14; in [24], 5.14; in assay [25] it was 6.22.
On to MPRQRP [TMEM131], for which the “PRISMA enrichment of interactor (log2)” value stood at 5.1 in assay [26]; 6.26 in assay [27]; 6.16 in assay [28]; 7.11 in assay [29]; 5.96 in assay [30]; 5.4 in [31]. Further, the “PRISMA enrichment of interactor (log2)” value amounted to 5.56 in [32]; 5.9 in assay [33]; 5.34 in [34]; 5.53 in assay [35]; 6.11 in assay [36]; 5.86 in assay [21]. For the same molecule, the “PRISMA enrichment of interactor (log2)” value was found to be 6.03 in assay [37]; 4.89 in [38]; 5.6 in [39]; 4.88 in assay [40]; 5.18 in assay [41]; 4.9 in assay [42]. Further, the “PRISMA enrichment of interactor (log2)” value in assay [43] worked out at 5.32; in assay [44], 5.88; in assay [45], 5.54; in assay [46], 5.5; in assay [47], 5.78; in [48], 5.67. In addition, the “PRISMA enrichment of interactor (log2)” value in [49] stood at 4.98; in [50], 4.78; in assay [51] it was 4.43; in [52], 5.61; in assay [53], 4.98; in assay [54] it was 6.08. Further, the “PRISMA enrichment of interactor (log2)” value turned out to be 6.92 in assay [55]; 5.54 in assay [56]; 5.8 in assay [57]; 5.32 in assay [58]; 5.3 in assay [59]; 5.16 in [60]. Further, the “PRISMA enrichment of interactor (log2)” value in [61] was found to be 5.42; in assay [62], 5.8; in assay [63] it was 6.47; in [64], 5.86; in assay [65], 5.13.
MQAGKRN [PKIG]: the “PRISMA enrichment of interactor (log2)” value in assay [46] is 5.46; in assay [66] it was 5.09; in assay [47], 6.18; in assay [67], 4.63; in [48], 6.03; in assay [50] it was 4.96. Moreover, the “PRISMA enrichment of interactor (log2)” value stood at 5.31 in assay [68]; 6.83 in [69]; 5.31 in assay [52]; 5.93 in assay [54]; 4.91 in assay [57]; 5.22 in [70]. The “PRISMA enrichment of interactor (log2)” value in assay [71] amounted to 6.44; in assay [58], 4.92; in [72] it was 5.5; in assay [59] it was 4.89; in [73], 5.54; in assay [74], 5.56. Besides, the “PRISMA enrichment of interactor (log2)” value in assay [64] is 5.32; in assay [75], 4.65; in assay [76], 4.93; in assay [65] it was 5.34; in assay [77], 5.63; in assay [78], 4.8.
